Laboratory results reported in the supplement of paper PMC10849652.
This is one part of the list.

Protein sequences, listed by entry. Tags and fused reporters are not part of them. Lines headed by an entry give the natural chain unless they say otherwise; changes in a name come on top.
UniProt Q13069: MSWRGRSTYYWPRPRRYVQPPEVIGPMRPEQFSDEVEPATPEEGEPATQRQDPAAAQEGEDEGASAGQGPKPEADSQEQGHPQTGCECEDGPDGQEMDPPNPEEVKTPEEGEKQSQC
UniProt Q9BQS8: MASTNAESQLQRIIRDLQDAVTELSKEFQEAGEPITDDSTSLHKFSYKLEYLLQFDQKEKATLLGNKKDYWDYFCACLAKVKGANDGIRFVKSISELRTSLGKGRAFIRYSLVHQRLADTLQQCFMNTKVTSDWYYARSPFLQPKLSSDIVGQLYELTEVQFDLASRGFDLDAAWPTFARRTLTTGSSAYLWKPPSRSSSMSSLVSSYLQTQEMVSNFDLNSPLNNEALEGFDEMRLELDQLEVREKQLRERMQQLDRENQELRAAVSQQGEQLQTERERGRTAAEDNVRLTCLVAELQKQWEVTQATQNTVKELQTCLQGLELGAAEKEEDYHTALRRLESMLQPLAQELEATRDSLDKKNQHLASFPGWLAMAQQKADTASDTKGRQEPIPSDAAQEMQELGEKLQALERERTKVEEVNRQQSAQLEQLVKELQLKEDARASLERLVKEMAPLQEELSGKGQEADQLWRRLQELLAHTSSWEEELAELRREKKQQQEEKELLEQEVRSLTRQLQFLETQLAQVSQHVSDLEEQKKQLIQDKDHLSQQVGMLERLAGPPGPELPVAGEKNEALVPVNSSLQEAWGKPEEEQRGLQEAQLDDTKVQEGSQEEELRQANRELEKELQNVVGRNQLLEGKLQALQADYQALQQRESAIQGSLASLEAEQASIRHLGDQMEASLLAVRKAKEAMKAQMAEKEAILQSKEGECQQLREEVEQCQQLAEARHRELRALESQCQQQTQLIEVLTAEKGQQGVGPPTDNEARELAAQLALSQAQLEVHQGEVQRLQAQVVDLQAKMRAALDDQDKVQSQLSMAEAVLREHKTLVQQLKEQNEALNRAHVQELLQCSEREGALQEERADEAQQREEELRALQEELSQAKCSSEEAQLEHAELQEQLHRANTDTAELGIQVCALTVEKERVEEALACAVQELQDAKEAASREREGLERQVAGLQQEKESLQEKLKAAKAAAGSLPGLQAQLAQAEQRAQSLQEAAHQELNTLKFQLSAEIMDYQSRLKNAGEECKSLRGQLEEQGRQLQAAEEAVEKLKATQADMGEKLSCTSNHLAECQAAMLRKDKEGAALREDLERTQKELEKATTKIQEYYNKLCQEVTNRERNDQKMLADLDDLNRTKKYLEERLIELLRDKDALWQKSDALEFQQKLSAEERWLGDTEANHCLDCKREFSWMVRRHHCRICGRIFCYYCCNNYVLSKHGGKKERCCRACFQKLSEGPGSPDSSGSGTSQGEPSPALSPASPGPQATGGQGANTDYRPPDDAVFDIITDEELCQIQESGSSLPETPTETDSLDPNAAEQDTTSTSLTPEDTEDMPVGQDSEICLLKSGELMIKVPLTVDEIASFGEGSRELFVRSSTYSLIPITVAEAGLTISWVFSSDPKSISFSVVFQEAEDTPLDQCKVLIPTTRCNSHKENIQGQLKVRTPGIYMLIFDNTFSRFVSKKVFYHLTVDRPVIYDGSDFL
UniProt O94915: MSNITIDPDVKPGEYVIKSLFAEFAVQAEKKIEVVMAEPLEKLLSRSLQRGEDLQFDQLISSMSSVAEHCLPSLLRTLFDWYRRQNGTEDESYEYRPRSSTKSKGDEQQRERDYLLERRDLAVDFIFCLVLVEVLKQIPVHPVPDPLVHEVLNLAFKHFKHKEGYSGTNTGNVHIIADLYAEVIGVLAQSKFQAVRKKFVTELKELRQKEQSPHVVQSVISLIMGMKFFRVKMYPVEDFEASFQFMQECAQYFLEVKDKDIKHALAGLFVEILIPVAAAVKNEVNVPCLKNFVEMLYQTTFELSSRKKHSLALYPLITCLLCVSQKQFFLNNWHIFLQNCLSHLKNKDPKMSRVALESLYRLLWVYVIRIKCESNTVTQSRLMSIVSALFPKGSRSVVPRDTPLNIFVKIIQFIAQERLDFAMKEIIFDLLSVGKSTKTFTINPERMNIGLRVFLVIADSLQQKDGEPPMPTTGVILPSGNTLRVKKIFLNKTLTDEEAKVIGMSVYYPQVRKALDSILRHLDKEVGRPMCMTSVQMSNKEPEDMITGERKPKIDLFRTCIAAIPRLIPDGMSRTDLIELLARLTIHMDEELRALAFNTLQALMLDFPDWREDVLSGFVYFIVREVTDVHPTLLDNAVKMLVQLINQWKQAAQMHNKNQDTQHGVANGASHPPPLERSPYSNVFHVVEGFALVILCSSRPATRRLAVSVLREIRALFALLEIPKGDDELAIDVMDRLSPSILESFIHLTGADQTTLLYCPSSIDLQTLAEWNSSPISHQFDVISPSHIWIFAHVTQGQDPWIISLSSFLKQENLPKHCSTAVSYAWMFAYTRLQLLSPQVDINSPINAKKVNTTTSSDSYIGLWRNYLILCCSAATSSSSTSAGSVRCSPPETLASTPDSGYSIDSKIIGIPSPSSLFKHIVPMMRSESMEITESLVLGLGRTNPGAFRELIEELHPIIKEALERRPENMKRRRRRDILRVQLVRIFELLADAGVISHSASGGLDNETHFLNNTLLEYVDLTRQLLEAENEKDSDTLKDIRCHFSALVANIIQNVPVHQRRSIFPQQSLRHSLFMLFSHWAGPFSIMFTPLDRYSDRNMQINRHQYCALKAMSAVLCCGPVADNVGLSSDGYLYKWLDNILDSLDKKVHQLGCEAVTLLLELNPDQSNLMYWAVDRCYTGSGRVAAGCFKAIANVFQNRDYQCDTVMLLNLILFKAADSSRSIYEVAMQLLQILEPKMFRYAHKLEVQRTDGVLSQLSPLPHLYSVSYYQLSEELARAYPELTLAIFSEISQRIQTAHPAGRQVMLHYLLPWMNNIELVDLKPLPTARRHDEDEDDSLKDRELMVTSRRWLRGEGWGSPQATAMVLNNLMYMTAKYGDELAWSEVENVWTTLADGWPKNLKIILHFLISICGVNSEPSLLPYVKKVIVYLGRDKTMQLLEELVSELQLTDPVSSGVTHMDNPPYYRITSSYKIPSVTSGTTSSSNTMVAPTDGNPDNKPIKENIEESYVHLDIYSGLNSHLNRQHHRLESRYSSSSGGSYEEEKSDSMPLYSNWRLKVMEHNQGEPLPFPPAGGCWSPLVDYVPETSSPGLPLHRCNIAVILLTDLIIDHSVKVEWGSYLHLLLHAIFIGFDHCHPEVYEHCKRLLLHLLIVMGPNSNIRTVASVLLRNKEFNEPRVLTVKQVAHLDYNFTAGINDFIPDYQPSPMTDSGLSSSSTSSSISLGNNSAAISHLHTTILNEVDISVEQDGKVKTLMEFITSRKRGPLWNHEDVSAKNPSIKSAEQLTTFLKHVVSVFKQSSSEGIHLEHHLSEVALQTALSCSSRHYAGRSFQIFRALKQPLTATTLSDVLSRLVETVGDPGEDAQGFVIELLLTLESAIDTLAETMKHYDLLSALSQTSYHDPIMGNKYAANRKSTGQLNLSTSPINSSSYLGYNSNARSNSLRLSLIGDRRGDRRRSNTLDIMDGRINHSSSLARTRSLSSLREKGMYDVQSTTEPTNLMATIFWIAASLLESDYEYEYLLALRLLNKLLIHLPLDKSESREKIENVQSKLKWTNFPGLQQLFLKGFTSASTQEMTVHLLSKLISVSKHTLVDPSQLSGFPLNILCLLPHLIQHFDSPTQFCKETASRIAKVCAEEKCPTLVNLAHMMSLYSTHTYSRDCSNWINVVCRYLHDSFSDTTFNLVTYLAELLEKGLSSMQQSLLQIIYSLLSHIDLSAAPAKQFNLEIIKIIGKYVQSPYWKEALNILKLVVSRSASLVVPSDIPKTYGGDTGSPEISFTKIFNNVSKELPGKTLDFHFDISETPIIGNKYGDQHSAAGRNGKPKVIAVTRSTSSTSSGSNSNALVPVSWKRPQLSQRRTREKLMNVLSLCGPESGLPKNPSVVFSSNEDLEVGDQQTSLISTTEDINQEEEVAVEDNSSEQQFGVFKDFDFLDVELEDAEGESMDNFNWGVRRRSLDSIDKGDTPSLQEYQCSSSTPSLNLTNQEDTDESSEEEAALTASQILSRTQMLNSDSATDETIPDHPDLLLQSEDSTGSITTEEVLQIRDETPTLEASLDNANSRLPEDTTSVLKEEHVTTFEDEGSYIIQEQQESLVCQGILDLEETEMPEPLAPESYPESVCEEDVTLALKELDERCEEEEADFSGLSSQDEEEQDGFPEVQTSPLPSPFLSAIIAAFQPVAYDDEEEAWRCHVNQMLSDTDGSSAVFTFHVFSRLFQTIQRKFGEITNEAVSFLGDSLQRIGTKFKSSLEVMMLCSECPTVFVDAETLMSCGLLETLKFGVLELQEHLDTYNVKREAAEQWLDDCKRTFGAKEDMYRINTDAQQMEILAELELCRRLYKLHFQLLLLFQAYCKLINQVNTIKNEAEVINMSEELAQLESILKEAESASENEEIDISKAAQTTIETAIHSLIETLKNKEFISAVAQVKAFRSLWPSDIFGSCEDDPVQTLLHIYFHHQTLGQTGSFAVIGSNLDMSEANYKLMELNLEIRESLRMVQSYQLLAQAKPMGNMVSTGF
UniProt P50395: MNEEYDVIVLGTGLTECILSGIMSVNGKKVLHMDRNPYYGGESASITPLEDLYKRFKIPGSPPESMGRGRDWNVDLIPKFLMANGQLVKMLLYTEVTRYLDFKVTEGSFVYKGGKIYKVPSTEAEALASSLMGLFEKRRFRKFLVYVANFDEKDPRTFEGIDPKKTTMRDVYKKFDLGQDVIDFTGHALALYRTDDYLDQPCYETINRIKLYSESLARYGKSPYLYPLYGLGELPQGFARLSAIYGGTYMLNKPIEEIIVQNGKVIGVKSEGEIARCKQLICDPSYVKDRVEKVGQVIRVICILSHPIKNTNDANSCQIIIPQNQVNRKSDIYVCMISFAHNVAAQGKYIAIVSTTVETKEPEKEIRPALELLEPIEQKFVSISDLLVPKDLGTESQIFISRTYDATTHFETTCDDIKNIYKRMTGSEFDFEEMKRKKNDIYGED
UniProt Q9H2C0: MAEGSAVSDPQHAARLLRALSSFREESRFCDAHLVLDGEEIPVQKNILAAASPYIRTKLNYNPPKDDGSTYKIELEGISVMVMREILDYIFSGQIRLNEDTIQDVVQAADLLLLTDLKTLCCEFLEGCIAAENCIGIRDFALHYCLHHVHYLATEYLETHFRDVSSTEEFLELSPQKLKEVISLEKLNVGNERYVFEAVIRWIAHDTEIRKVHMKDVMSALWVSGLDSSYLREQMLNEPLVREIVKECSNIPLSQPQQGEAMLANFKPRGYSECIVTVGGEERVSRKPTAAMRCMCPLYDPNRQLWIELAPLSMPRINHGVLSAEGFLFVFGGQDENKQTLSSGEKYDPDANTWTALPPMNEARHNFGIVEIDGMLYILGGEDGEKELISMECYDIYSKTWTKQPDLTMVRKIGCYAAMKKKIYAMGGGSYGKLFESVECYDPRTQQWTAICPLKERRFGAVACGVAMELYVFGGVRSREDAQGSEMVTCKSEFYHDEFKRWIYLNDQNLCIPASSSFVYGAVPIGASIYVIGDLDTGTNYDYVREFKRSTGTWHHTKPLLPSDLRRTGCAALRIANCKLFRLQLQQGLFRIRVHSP
UniProt P51116, whole entry, looked up: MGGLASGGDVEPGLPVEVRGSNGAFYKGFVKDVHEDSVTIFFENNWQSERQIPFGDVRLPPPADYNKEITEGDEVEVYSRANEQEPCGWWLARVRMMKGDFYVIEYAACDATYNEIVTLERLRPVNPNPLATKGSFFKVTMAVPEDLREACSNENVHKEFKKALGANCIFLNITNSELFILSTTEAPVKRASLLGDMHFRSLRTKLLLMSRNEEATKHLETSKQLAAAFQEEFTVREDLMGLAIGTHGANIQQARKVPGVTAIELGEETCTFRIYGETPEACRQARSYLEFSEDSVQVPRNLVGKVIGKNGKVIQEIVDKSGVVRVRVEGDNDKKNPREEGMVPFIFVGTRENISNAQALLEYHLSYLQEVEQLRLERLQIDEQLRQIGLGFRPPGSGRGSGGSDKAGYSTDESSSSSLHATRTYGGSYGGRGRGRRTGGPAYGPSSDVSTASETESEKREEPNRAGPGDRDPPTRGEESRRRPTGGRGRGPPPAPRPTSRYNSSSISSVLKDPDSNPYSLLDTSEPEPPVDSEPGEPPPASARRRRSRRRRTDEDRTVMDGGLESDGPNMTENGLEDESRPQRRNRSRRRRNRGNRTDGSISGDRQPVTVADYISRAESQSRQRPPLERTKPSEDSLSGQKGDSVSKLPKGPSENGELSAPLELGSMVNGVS

What was measured:
Assay in all cases: log2 fold change, soluble protein after heating vs DMSO (PISA); higher = thermal stabilisation; K562 cells, 10 uM, 30 min; active = over 0.2 and 3.5 SD of the protein, either way, in both replicates (recomputed)
[1] = compound: CC[C@@H]1C(=O)N(C)c2cnc(Nc3ccc(C(=O)NC4CCN(C)CC4)cc3OC)nc2N1C1CCCC1
Summary of the method: (§1)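 Values are thermal stability changes relative to control samples and are taken from duplicates. They are stated as log2 fold changes. Before quantification by TMTpro 16plex LC-MS/MS with equalised channel sums, K562 cells at 2×10^6 cells/mL were treated with 10 μM compound for 30 min, heated in aliquots for 3 min across 48°C-58°C, pooled, extracted in PBS with 0.5% NP-40 at 4°C, and centrifuged at 21,000xg for 90 min to give the soluble supernatant.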

[2] = compound: CC[C@@H]1C(=O)N(C)c2cnc(Nc3ccc(C(=O)N[C@H]4CC[C@H](N5CCN(CC6CC6)CC5)CC4)cc3OC)nc2N1C(C)C [volasertib]
Summary of the method: as §1

[3] = compound: CC[C@H](C)N1C=C(C2=C(C=C(C=C21)C3=CN=C(C=C3)N4CCNCC4)C(=O)NCC5=C(C=C(NC5=O)C)C)C
Summary of the method: as §1

[4] = compound: CC[C@H](C)[C@@H](C(=O)N[C@@H]([C@@H](C)O)C(=O)N[C@@H](CC(C)C)C(=O)[C@]1(CO1)C)NC(=O)[C@H]([C@@H](C)CC)N(C)C(=O)C [epoxomicin]
Summary of the method: as §1

[5] = compound: CCn1c(C(=O)N(C2CC2)C2CC2)cc2c3c(ncn3C)c(Nc3cc(C)n(C)n3)nc21
Summary of the method: as §1

[6] = compound: CCn1cc(-c2ccnc3[nH]c(-c4cccc(CN(C)C)c4)cc23)c(-c2ccc(NC(=O)N(C)C)cc2)n1
Summary of the method: as §1

[7] = compound: CN(C)CC(=O)Nc1ccc2[nH]c(=O)c3ccccc3c2c1
Summary of the method: as §1

[8] = compound: CN(CCOC1=CC=C(C=C1)C[C@H]2C(=O)NC(=O)S2)C3=CC=CC=N3 (racemic) [rosiglitazone]
Summary of the method: as §1

[9] = compound: CN1C2=C(C3=C1C(=O)N(N=C3)CC4=CC(=CC=C4)N)SC(=C2)S(=O)C
Summary of the method: as §1

[10] = compound: CN1CCC(CNc2ccc3ncc(-c4cccc(OC(F)(F)F)c4)n3n2)CC1
Summary of the method: as §1

Measured: log2 fold change

FURIN (UniProt P09958)
inactive: [1] -0.217 | [2] -0.011 | [3] 0.008 | [4] -0.016 | [5] 0.074 | [6] 0.049 | [7] 0.061 | [8] -0.022 | [9] 0.082 | [10] -0.042

GAGE5 (UniProt Q13069)
inactive: [1] 0.056 | [2] 0.076 | [3] -0.039 | [4] 0.02 | [5] 0.047 | [6] 0.032 | [7] -0.056 | [8] -0.022 | [9] -0.049 | [10] -0.042

GCN1 (UniProt Q92616)
inactive: [1] 0.154 | [2] 0.059 | [3] -0.008 | [4] -0.287 | [5] -0.041 | [6] 0.145 | [7] -0.004 | [8] -0.075 | [9] 0.555 | [10] 0.064

FUS (UniProt P35637)
inactive: [1] 0.16 | [2] 0.223 | [3] -0.037 | [4] -0.097 | [5] -0.006 | [6] 0.119 | [7] -0.145 | [8] -0.092 | [9] 0.071 | [10] 0.134

GAMT (UniProt Q14353)
inactive: [1] 0.055 | [2] 0.265 | [3] 0.088 | [4] -0.063 | [5] -0.007 | [6] -0.102 | [7] 0.041 | [8] 0.017 | [9] -0.026 | [10] 0.03

G3BP2 (UniProt Q9UN86)
inactive: [1] 0.185 | [2] 0.269 | [3] 0.054 | [4] -0.193 | [5] 0.014 | [6] 0.128 | [7] -0.071 | [8] -0.135 | [9] 0.197 | [10] 0.201

GART (UniProt C9JZG2)
inactive: [1] 0.043 | [2] 0.015 | [3] -0.157 | [4] 0.022 | [5] -0.142 | [6] 0.072 | [7] -0.028 | [8] 0.106 | [9] -0.012 | [10] -0.193

GGACT (UniProt Q9BVM4)
inactive: [1] 0

GEMIN4 (UniProt P57678)
inactive: [1] 0.206 | [2] -0.898 | [3] -0.028 | [4] -0.223 | [5] -0.097 | [6] 0.19 | [7] 0.059 | [8] -0.235 | [9] 0.462 | [10] -0.368

FXR1 (UniProt P51114)
inactive: [1] 0.149 | [2] -0.138 | [3] 0.071 | [4] -0.399 | [5] 0.069 | [6] 0.215 | [7] 0.004 | [8] 0.002 | [9] 0.422 | [10] 0.018

FYCO1 isoform 4 (UniProt Q9BQS8)
inactive: [1] -0.032 | [2] -0.153 | [3] 0.09 | [4] -0.013 | [5] -0.045 | [6] -0.146 | [7] 0.016 | [8] 0.009 | [9] -0.013 | [10] 0.014

FRYL (UniProt O94915)
inactive: [1] -0.012 | [2] -0.179 | [3] 0.041 | [4] -0.038 | [5] -0.017 | [6] 0 | [7] -0.006 | [8] 0 | [9] 0.046 | [10] 0.004

GHITM (UniProt Q9H3K2)
inactive: [1] 0.025 | [2] 0.047 | [3] -0.021 | [4] -0.029 | [5] 0.036 | [6] -0.004 | [7] 0.029 | [8] -0.019 | [9] 0.01 | [10] -0.047

FRRS1 (UniProt Q6ZNA5)
inactive: [1] 0.11 | [2] 0.002 | [3] -0.039 | [4] 0.026 | [5] -0.001 | [6] 0.007 | [7] 0.019 | [8] -0.016 | [9] 0.004 | [10] 0.027

GGNBP2 (UniProt Q9H3C7)
inactive: [1] 0.032 | [2] 0.14 | [3] -0.048 | [4] 0.062 | [5] 0.018 | [6] -0.05 | [7] -0.072 | [8] 0.03 | [9] 0.228 | [10] 0.077

FTL (UniProt P02792)
inactive: [1] 0.101 | [2] 0.138 | [3] 0.081 | [4] -0.042 | [5] 0.039 | [6] 0.022 | [7] 0.003 | [8] 0.016 | [9] 0.033 | [10] 0.003

FPGT (UniProt O14772)
inactive: [1] 0.037 | [2] -0.001 | [3] -0.025 | [4] 0.025 | [5] 0.009 | [6] -0.092 | [7] -0.001 | [8] -0.008 | [9] -0.068 | [10] -0.123

GDI2 (UniProt P50395)
inactive: [1] -0.023 | [2] 0.134 | [3] 0.016 | [4] 0.045 | [5] -0.002 | [6] -0.043 | [7] -0.031 | [8] 0.029 | [9] -0.098 | [10] 0.018

GANAB (UniProt Q14697)
inactive: [1] -0.311 | [2] 0.082

GANAB isoform 2 (UniProt Q14697)
inactive: [1] -0.032 | [2] -0.021 | [3] 0.036 | [4] 0.013 | [5] 0.017 | [6] 0.022 | [7] -0.006 | [8] -0.021 | [9] 0.06 | [10] 0.046

GAN (UniProt Q9H2C0)
inactive: [1] 0.033 | [2] 0.032 | [3] 0.043 | [4] -0.03 | [5] -0.019 | [6] -0.07 | [7] 0.007 | [8] 0.031 | [9] 0.035 | [10] -0.101

GALNS (UniProt P34059)
inactive: [1] 0.015 | [2] 0.122 | [3] -0.076 | [4] -0.04 | [5] 0.013 | [6] 0.007 | [7] 0.065 | [8] -0.041 | [9] -0.004 | [10] 0.037

FXR2 (UniProt P51116)
inactive: [1] 0.056 | [2] -0.045 | [3] 0.019 | [4] -0.108 | [5] 0.023 | [6] 0.133 | [7] -0.053 | [8] -0.001 | [9] 0.459 | [10] 0.029

GBA (UniProt P04062)
inactive: [1] 0.024 | [2] 0.051 | [3] 0.059 | [4] 0.015 | [5] 0.012 | [6] 0.087 | [7] 0.015 | [8] 0.031 | [9] 0.048 | [10] 0.026

GART (UniProt P22102)
inactive: [1] -0.093 | [2] -0.078 | [3] 0.037 | [4] -0.01 | [5] -0.005 | [6] -0.009 | [7] 0.052 | [8] 0.057 | [9] -0.05 | [10] -0.009

G6PD isoform 2 (UniProt P11413)
inactive: [1] -0.054 | [2] 0.037 | [3] 0.056 | [4] 0.047 | [5] 0.013 | [6] -0.059 | [7] 0.005 | [8] 0.043 | [9] -0.083 | [10] -0.036

GGA3 (UniProt Q9NZ52)
inactive: [1] -0.025 | [2] -0.169 | [3] 0.032 | [4] 0.032 | [5] -0.039 | [6] -0.044 | [7] 0.09 | [8] 0.009 | [9] 0.045 | [10] 0.002

FRG1 (UniProt Q14331)
inactive: [1] 0.066 | [2] 0.166 | [3] -0.02 | [4] -0.08 | [5] -0.039 | [6] 0.063 | [7] -0.041 | [8] -0.047 | [9] 0.064 | [10] 0.025

FUBP1 (UniProt Q96AE4)
inactive: [1] -0.013 | [2] 0.092 | [3] 0.013 | [4] 0.061 | [5] -0.021 | [6] 0.007 | [7] 0.101 | [8] 0.017 | [9] -0.039 | [10] 0.203

Looked up one by one from the entries so far (2):
FRG1 (UniProt Q14331)
inactive: [1] 0.066 | [2] 0.166 | [3] -0.02 | [4] -0.08 | [5] -0.039 | [6] 0.063 | [7] -0.041 | [8] -0.047 | [9] 0.064 | [10] 0.025

FUBP1 (UniProt Q96AE4)
inactive: [1] -0.013 | [2] 0.092 | [3] 0.013 | [4] 0.061 | [5] -0.021 | [6] 0.007 | [7] 0.101 | [8] 0.017 | [9] -0.039 | [10] 0.203
